Source: the supplement of paper PMC12823440, “Inhibitors supercharge kinase turnover through native proteolytic circuits” (Nature, 2025)
This is one part of the list. Hit calls seldom repeat between salt and free forms of one compound.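 Kinases were expressed as nanoluciferase fusions in K562 cells and luminescence was read every 4 h between 2 and 18 h as percent of control, DMSO set to 100% and a positive control to 0%. A time point counts as decreased when the signal drops significantly (2 sigma). The hit call is the authors' own, does not follow from the count of time points alone, and its rule is not shown.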

The chains behind the UniProt entries cited, without tags or fusion partners. Where a name states a change or a piece, a line headed by the entry shows the natural chain unless it says otherwise.
UniProt P11802: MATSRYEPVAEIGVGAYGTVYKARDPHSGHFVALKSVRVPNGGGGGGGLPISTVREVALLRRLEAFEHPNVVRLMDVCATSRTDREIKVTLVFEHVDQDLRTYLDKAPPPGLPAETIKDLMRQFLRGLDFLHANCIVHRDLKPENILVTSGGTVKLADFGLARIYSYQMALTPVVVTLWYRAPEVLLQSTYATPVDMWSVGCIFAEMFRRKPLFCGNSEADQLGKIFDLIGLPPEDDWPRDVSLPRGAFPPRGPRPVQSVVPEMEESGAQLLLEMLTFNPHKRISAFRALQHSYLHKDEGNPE
UniProt Q00535, whole entry, looked up: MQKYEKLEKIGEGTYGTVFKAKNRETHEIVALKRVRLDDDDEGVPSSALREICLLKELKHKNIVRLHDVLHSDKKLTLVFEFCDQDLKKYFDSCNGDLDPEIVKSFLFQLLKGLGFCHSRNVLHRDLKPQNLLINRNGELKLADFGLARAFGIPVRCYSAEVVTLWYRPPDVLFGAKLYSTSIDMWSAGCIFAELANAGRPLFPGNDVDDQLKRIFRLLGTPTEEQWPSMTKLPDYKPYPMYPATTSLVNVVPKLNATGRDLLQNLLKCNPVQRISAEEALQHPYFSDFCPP

These compounds were tested against CDK4 (UniProt P11802) (assay: kinase-Nluc reporter destabilization hit call (1 = scored as downregulated) (binary); higher = compound decreases kinase abundance). Settings: K562; 2-18 h.

Row | Structure (SMILES) | kinase-Nluc reporter destabilization hit call
1 | O=c1cc(O)c2ccccc2o1 [4-Hydroxycoumarin] (10 µM) | inactive: 0
2 | CCCCNc1nc(N)c2[nH]c(=O)n(Cc3ccc(C)nc3)c2n1 (10 µM) | inactive: 0
3 | CCCS(=O)(=O)Nc1ccc(F)c(-n2cc(-c3cncnc3)c3nc(N(C)C4CCN(CC)CC4)ccc32)c1F (2 µM) | inactive: 0
4 | C[C@H]1CC[C@]2(NC1)O[C@H]1C[C@H]3[C@@H]4CC[C@H]5C[C@@H](O[C@@H]6O[C@H](CO)[C@H](O[C@@H]7O[C@H](CO)[C@@H](O)[C@H](O[C@@H]8OC[C@@H](O)[C@H](O)[C@H]8O)[C@H]7O[C@@H]7O[C@H](CO)[C@@H](O)[C@H](O)[C@H]7O)[C@H](O)[C@H]6O)CC[C@]5(C)[C@H]4CC[C@]3(C)[C@H]1[C@@H]2C [Tomatine] (2.5 µM) | inactive: 0
5 | Cc1n[nH]cc1-c1cc2nc([C@@H]3CC4CCN3CC4)[nH]c(=O)c2s1 [Simurosertib] (2.5 µM) | inactive: 0
6 | O=Cc1cn(Cc2ccc(Cl)cc2)c2ccccc12 [Oncrasin-1] (10 µM) | inactive: 0
7 | CC(=O)OC(C)(C)/C=C/C(=O)[C@](C)(O)[C@H]1[C@H](O)C[C@@]2(C)[C@@H]3CC=C4[C@@H](C=C(O)C(=O)C4(C)C)[C@]3(C)C(=O)C[C@]12C [Cucurbitacin E] (2.5 µM) | inactive: 0
8 | C[C@@H]1CC[C@H]2[C@@H](C)C(=O)O[C@@H]3O[C@@]4(C)CC[C@@H]1[C@]32OO4 [Artemisinin] (10 µM) | inactive: 0
9 | COc1ccc2c(c1)/C(=C/c1cnc[nH]1)C(=O)N2 (2.5 µM) | inactive: 0
10 | CC(=O)O[C@H]1[C@H]2[C@@H](OC(=O)Cc3ccccc3)[C@@H](C)C[C@]2(OC(C)=O)C(=O)/C(C)=C/[C@@H]2[C@H](CC[C@@]13CO3)C2(C)C [Euphorbiasteroid] (10 µM) | inactive: 0
11 | O=c1[nH]c2ccccc2n1C1CCN(CCCC(c2ccc(F)cc2)c2ccc(F)cc2)CC1 [Pimozide] (2.5 µM) | inactive: 0
12 | CC(=O)Oc1ccc(/C=C/c2cc(OC(C)=O)cc(OC(C)=O)c2)cc1 [Triacetylresveratrol] (10 µM) | inactive: 0
13 | C/C=C(/C)C(=O)O[C@H]1[C@@H]2[C@H](C)C(=O)O[C@@H]2C[C@@H](C)[C@@H]2C=CC(=O)[C@]21C [Brevilin A] (2.5 µM) | inactive: 0
14 | O=[N+]([O-])/C=C/c1ccc2c(c1)OCO2 (2.5 µM) | inactive: 0
15 | O=C(O)c1nn(Cc2ccc(Cl)cc2Cl)c2ccccc12 [Lonidamine] (10 µM) | inactive: 0
16 | CC(=O)c1c(O)c(C)c(O)c(Cc2c(O)c3c(c(C(=O)/C=C/c4ccccc4)c2O)OC(C)(C)C=C3)c1O [Rottlerin] (2 µM) | inactive: 0
17 | Cn1cc(C2=C(c3cn(C4CCN(Cc5ccccn5)CC4)c4ccccc34)C(=O)NC2=O)c2ccccc21 [Enzastaurin] (10 µM) | inactive: 0
18 | Cc1ccccc1-n1c(Cn2ncc3c(N)ncnc32)nc2cccc(C)c2c1=O (10 µM) | inactive: 0
19 | O=c1[nH]c2ccccc2n1C1CCN(Cc2ccc(-c3[nH]c4cc5ncnc5cc4nc3-c3ccccc3)cc2)CC1 [AKT inhibitor VIII] (2.5 µM) | inactive: 0
20 | C=CC(=O)Nc1ccc2[nH]c(=O)n(C3CCN(Cc4ccc(-c5nc6cc[nH]c(=O)c6cc5-c5ccccc5)cc4)CC3)c2c1 [Borussertib] (10 µM) | inactive: 0
21 | C[S+]([O-])/C=C/CCN=C=S (configuration not stated) [Sulforaphene] (10 µM) | inactive: 0
22 | CC1=C[C@]23C(=O)[C@@H](C=C(CO)[C@@H](O)[C@]2(O)[C@H]1O)[C@H]1[C@@H](C[C@H]3C)C1(C)C [Ingenol] (10 µM) | inactive: 0
23 | CCCCCCCCCCCCCCCCOC[C@H](COP(=O)([O-])OCC[N+](C)(C)C)OC(C)=O (10 µM) | inactive: 0
24 | Cc1ccccc1-n1c(Cn2cnc3c(N)ncnc32)nc2cccc(C)c2c1=O (10 µM) | inactive: 0
25 | COc1ccc2c(c1)[nH]c1c(C)nccc12 [Harmine] (10 µM) | inactive: 0
26 | O=C(N[C@@H](COc1ccc2[nH]c(=O)[nH]c2c1)c1ccccc1)c1cccn(Cc2ccc(F)c(F)c2)c1=O (2.5 µM) | inactive: 0
27 | COc1cc2c(cc1F)C(c1ccccc1Cl)=Nc1c(n[nH]c1C)N2 (0.5 µM) | inactive: 0
28 | N#CC(C#N)=Cc1ccc(O)c(O)c1 [Tyrphostin 23] (10 µM) | inactive: 0
29 | N#CC(C#N)=NNc1cccc(Cl)c1 (2.5 µM) | inactive: 0

The compounds below were run against CDK5 (UniProt Q00535) in the same assay as above. Settings: K562; 2-18 h.

Row | Structure (SMILES) | kinase-Nluc reporter destabilization hit call
30 | O=c1cc(O)c2ccccc2o1 [4-Hydroxycoumarin] (10 µM) | inactive: 0
31 | CCCCNc1nc(N)c2[nH]c(=O)n(Cc3ccc(C)nc3)c2n1 (10 µM) | inactive: 0
32 | CCCS(=O)(=O)Nc1ccc(F)c(-n2cc(-c3cncnc3)c3nc(N(C)C4CCN(CC)CC4)ccc32)c1F (2 µM) | inactive: 0
33 | C[C@H]1CC[C@]2(NC1)O[C@H]1C[C@H]3[C@@H]4CC[C@H]5C[C@@H](O[C@@H]6O[C@H](CO)[C@H](O[C@@H]7O[C@H](CO)[C@@H](O)[C@H](O[C@@H]8OC[C@@H](O)[C@H](O)[C@H]8O)[C@H]7O[C@@H]7O[C@H](CO)[C@@H](O)[C@H](O)[C@H]7O)[C@H](O)[C@H]6O)CC[C@]5(C)[C@H]4CC[C@]3(C)[C@H]1[C@@H]2C [Tomatine] (2.5 µM) | inactive: 0
34 | Cc1n[nH]cc1-c1cc2nc([C@@H]3CC4CCN3CC4)[nH]c(=O)c2s1 [Simurosertib] (2.5 µM) | inactive: 0
35 | O=Cc1cn(Cc2ccc(Cl)cc2)c2ccccc12 [Oncrasin-1] (10 µM) | inactive: 0
36 | CC(=O)OC(C)(C)/C=C/C(=O)[C@](C)(O)[C@H]1[C@H](O)C[C@@]2(C)[C@@H]3CC=C4[C@@H](C=C(O)C(=O)C4(C)C)[C@]3(C)C(=O)C[C@]12C [Cucurbitacin E] (2.5 µM) | inactive: 0
37 | C[C@@H]1CC[C@H]2[C@@H](C)C(=O)O[C@@H]3O[C@@]4(C)CC[C@@H]1[C@]32OO4 [Artemisinin] (10 µM) | inactive: 0
38 | COc1ccc2c(c1)/C(=C/c1cnc[nH]1)C(=O)N2 (2.5 µM) | inactive: 0
39 | CC(=O)O[C@H]1[C@H]2[C@@H](OC(=O)Cc3ccccc3)[C@@H](C)C[C@]2(OC(C)=O)C(=O)/C(C)=C/[C@@H]2[C@H](CC[C@@]13CO3)C2(C)C [Euphorbiasteroid] (10 µM) | inactive: 0
40 | O=c1[nH]c2ccccc2n1C1CCN(CCCC(c2ccc(F)cc2)c2ccc(F)cc2)CC1 [Pimozide] (2.5 µM) | inactive: 0
41 | CC(=O)Oc1ccc(/C=C/c2cc(OC(C)=O)cc(OC(C)=O)c2)cc1 [Triacetylresveratrol] (10 µM) | inactive: 0
42 | C/C=C(/C)C(=O)O[C@H]1[C@@H]2[C@H](C)C(=O)O[C@@H]2C[C@@H](C)[C@@H]2C=CC(=O)[C@]21C [Brevilin A] (2.5 µM) | inactive: 0
43 | O=[N+]([O-])/C=C/c1ccc2c(c1)OCO2 (2.5 µM) | inactive: 0
44 | O=C(O)c1nn(Cc2ccc(Cl)cc2Cl)c2ccccc12 [Lonidamine] (10 µM) | inactive: 0
45 | CC(=O)c1c(O)c(C)c(O)c(Cc2c(O)c3c(c(C(=O)/C=C/c4ccccc4)c2O)OC(C)(C)C=C3)c1O [Rottlerin] (2 µM) | inactive: 0
46 | Cn1cc(C2=C(c3cn(C4CCN(Cc5ccccn5)CC4)c4ccccc34)C(=O)NC2=O)c2ccccc21 [Enzastaurin] (10 µM) | inactive: 0
47 | Cc1ccccc1-n1c(Cn2ncc3c(N)ncnc32)nc2cccc(C)c2c1=O (10 µM) | inactive: 0
48 | O=c1[nH]c2ccccc2n1C1CCN(Cc2ccc(-c3[nH]c4cc5ncnc5cc4nc3-c3ccccc3)cc2)CC1 [AKT inhibitor VIII] (2.5 µM) | inactive: 0
49 | C=CC(=O)Nc1ccc2[nH]c(=O)n(C3CCN(Cc4ccc(-c5nc6cc[nH]c(=O)c6cc5-c5ccccc5)cc4)CC3)c2c1 [Borussertib] (10 µM) | inactive: 0
50 | C[S+]([O-])/C=C/CCN=C=S (configuration not stated) [Sulforaphene] (10 µM) | inactive: 0
51 | CC1=C[C@]23C(=O)[C@@H](C=C(CO)[C@@H](O)[C@]2(O)[C@H]1O)[C@H]1[C@@H](C[C@H]3C)C1(C)C [Ingenol] (10 µM) | inactive: 0
52 | CCCCCCCCCCCCCCCCOC[C@H](COP(=O)([O-])OCC[N+](C)(C)C)OC(C)=O (10 µM) | inactive: 0
53 | Cc1ccccc1-n1c(Cn2cnc3c(N)ncnc32)nc2cccc(C)c2c1=O (10 µM) | inactive: 0
54 | COc1ccc2c(c1)[nH]c1c(C)nccc12 [Harmine] (10 µM) | inactive: 0
55 | O=C(N[C@@H](COc1ccc2[nH]c(=O)[nH]c2c1)c1ccccc1)c1cccn(Cc2ccc(F)c(F)c2)c1=O (2.5 µM) | inactive: 0
56 | N#CC(C#N)=Cc1ccc(O)c(O)c1 [Tyrphostin 23] (10 µM) | inactive: 0
57 | N#CC(C#N)=NNc1cccc(Cl)c1 (2.5 µM) | inactive: 0
